Reference: publication PMC9297854
Results are given in words; binding and its absence hold for the method and conditions named. Some binding calls cover weakened binding; strength is not graded here.

Amino acid sequences for entries named in this document (tags omitted).
UniProt Q01629: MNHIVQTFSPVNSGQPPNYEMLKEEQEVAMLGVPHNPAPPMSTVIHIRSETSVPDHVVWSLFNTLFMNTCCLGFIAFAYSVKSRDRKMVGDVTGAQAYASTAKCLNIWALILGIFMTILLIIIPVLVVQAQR
UniProt O95817: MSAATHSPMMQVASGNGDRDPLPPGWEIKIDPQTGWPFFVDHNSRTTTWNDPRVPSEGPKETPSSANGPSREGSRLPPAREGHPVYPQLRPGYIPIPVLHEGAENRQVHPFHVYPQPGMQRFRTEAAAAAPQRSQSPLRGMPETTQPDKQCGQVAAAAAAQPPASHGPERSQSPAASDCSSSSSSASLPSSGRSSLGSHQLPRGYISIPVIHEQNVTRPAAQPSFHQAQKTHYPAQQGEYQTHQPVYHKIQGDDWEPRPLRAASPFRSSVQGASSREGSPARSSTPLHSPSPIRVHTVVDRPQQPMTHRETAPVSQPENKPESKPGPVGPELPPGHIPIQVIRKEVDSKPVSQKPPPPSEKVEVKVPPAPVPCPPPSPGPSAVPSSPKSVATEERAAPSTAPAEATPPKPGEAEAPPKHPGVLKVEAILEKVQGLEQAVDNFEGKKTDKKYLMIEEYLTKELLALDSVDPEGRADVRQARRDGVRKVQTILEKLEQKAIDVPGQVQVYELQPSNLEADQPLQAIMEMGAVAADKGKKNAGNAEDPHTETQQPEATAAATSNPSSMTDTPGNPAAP

Target: Interferon-induced transmembrane protein (IFITM)-2 (human (endogenous in human dermal fibroblasts)) (UniProt Q01629)
Assay: flow cytometry on cells; competition: fibroblasts pretreated with rBAG3 1x (10 ug/ml) or 10x (100 ug/ml) for 30 min on ice, then 20 ug/ml FITC-conjugated anti-IFITM-2 monoclonal antibody for 30 min on ice; binding buffer PBS, 10% FBS, 0.1% NaN3; BSA as unrelated control; only the binder purified

For “Human recombinant BAG3 protein (from UniProt O95817 1-575)”, the binding was “binds”.
